# Results deposited as PubChem BioAssay AID504793 (Drosophila RNAi Screening Center, 2011).
# Screen: 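Whole-genome screen for parts of the DNA damage checkpoint at G2/M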 (primary screen)
# System: Drosophila S2R+ cells
# Reagent: long dsRNA against Drosophila genes, about 0.25 µg dsRNA per well
# Time to read-out: 4 days of dsRNA, then 4 hours of drug before read-out
# Conditions: doxorubicin 0.5 µM for 4 hours to cause double-strand breaks, in cells also given a low, harmless dose of dsRNA against nbs to sensitise the assay
# Measured: 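Per-well count of mitotic cells stained for phospho-histone H3 after doxorubicin exposure, used as mitotic index; counts are raw and not normalised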
# Scale: mitotic cells: higher = more cells in mitosis, weaker G2 arrest
# Active means: 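Genes are called active only when high mitotic counts were reproduced with independent dsRNAs and mitosis was checked for delay without damage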
# Calls: active = confirmed in follow-up tests; inactive = not confirmed
# The screen tested about 23,000 reagents; below is an unselected part of those that have a named target and a result. Over the whole deposit, 62 (0.27%) are marked active. 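Calls come from follow-up tests whose scores are not deposited, so confirmed genes may have low counts here; counts are not normalised per plate.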 Raw values vary from plate to plate and are shown uncorrected. Reagent sequences are not shown.
gene,amplicon,"mitotic cells, replicate 1","mitotic cells, replicate 2",Call
UQCR-11L,DRSC22166,16,,inactive
Tak1,DRSC20390,3,,inactive
Tak1,DRSC20561,9,,inactive
Tak1,DRSC20562,2,,inactive
scaRNA:MeU5-C46,DRSC36572,10,,inactive
RpS28b,DRSC18258,7,,inactive
RpS28b,DRSC29909,8,,inactive
Dic61B,DRSC27636,1,,inactive
TwdlS,DRSC14737,13,,inactive
Hsc70-2,DRSC16710,3,,inactive
Hsc70-2,DRSC28457,6,,inactive
CCT4,DRSC02865,89,,inactive
CCT4,DRSC28909,7,,inactive
CR18275,DRSC18151,10,,inactive
CR18275,DRSC28716,4,,inactive
CG18249,DRSC15318,7,,inactive
Fem-1,DRSC07322,3,,inactive
Fem-1,DRSC27014,4,,inactive

Reformatted: 2 of the entries above.
Hsc70-2 [DRSC28457]: mitotic cells, replicate 1 = 6; Call = inactive
CCT4 [DRSC02865]: mitotic cells, replicate 1 = 89; Call = inactive

Continued:
gene,amplicon,"mitotic cells, replicate 1","mitotic cells, replicate 2",Call
Acsx2,DRSC14308,3,,inactive
CG14667,DRSC12253,9,,inactive
CG14667,DRSC28216,3,,inactive
Gmd,DRSC03119,5,,inactive
Gmd,DRSC27937,6,,inactive
Gsc,DRSC00755,2,,inactive
Gsc,DRSC25752,1,,inactive
Dpck,DRSC12575,4,,inactive
CG14537,DRSC02395,3,,inactive
CG13280,DRSC02253,3,,inactive
CG6470,DRSC19994,2,,inactive
CG6470,DRSC27690,7,,inactive
Reg-2,DRSC08690,5,,inactive
Reg-2,DRSC26888,5,,inactive
eyg,DRSC23136,15,,inactive
eyg,DRSC26636,7,,inactive
GAA1,DRSC18267,8,,inactive
ArgRS-m,DRSC14186,1,11,inactive
Doc1,DRSC11146,7,,inactive
Doc1,DRSC25859,5,,inactive
CG6843,DRSC10725,6,,inactive
CG6843,DRSC29943,8,,inactive
CG11986,DRSC14461,3,,inactive
CG11986,DRSC24504,5,,inactive
AlaRS,DRSC01851,9,,inactive
CR31846 (retired record),DRSC22272,9,,inactive
mthl1,DRSC19905,7,,inactive
